Experimental data taken from the supplement of paper PMC8728848.
The list shows a part of the results.

Legend:
Assay in all cases: glycan array binding signal (z-score within array); higher = stronger binding
Conditions in all cases: glycan notation: IUPAC condensed, linker removed; mutation: R276L
[1] = target: Fuc(a1-2)[Gal(a1-3)]Gal(b1-4)GlcNAc(b1-2)Man(a1-3)[Fuc(a1-2)[Gal(a1-3)]Gal(b1-4)GlcNAc(b1-2)Man(a1-6)]Man(b1-4)GlcNAc(b1-4)GlcNAc
Procedure, shortened: (§1)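 The binding signal is a Z-score computed within each array and averaged over linkers. Arrays of the same protein sequence at different concentrations or buffers were also averaged together. Data originate from 3228 arrays in the Consortium for Functional Glycomics database, kept only where the protein sequence was available.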

[2] = target: Fuc(a1-2)[Gal(a1-3)]Gal(b1-4)GlcNAc(b1-2)Man(a1-3)[Fuc(a1-2)[Gal(a1-3)]Gal(b1-4)GlcNAc(b1-2)Man(a1-6)]Man(b1-4)GlcNAc(b1-4)[Fuc(a1-6)]GlcNAc
Procedure, shortened: as §1

[3] = target: Fuc(a1-2)[Gal(a1-3)]Gal(b1-4)GlcNAc(b1-3)GalNAc
Procedure, shortened: as §1

[4] = target: Fuc(a1-2)[Gal(a1-3)]Gal(b1-4)GlcNAc(b1-3)[Fuc(a1-2)[Gal(a1-3)]Gal(b1-4)GlcNAc(b1-6)]GalNAc
Procedure, shortened: as §1

[5] = target: Fuc(a1-2)[Gal(a1-3)]Gal(b1-4)GlcNAc(b1-6)GalNAc
Procedure, shortened: as §1

[6] = target: Fuc(a1-2)[Gal(a1-3)]Gal(b1-4)[Fuc(a1-3)]Glc
Procedure, shortened: as §1

[7] = target: Fuc(a1-2)[Gal(a1-3)]Gal(b1-4)[Fuc(a1-3)]GlcNAc
Procedure, shortened: as §1

[8] = target: Fuc(a1-2)[Gal(a1-3)]Gal(b1-4)[Fuc(a1-3)]GlcNAc(b1-3)GalNAc
Procedure, shortened: as §1

[9] = target: Fuc(a1-2)[Gal(a1-4)]Gal(b1-4)GlcNAc
Procedure, shortened: as §1

[10] = target: Fuc(a1-2)[GalNAc(a1-3)]Gal
Procedure, shortened: as §1

[11] = target: Fuc(a1-2)[GalNAc(a1-3)]Gal(b1-3)GalNAc(a1-3)[Fuc(a1-2)]Gal(b1-4)GlcNAc
Procedure, shortened: as §1

[12] = target: Fuc(a1-2)[GalNAc(a1-3)]Gal(b1-3)GalNAc(b1-3)Gal(a1-4)Gal(b1-4)Glc
Procedure, shortened: as §1

[13] = target: Fuc(a1-2)[GalNAc(a1-3)]Gal(b1-3)GlcNAc
Procedure, shortened: as §1

[14] = target: Fuc(a1-2)[GalNAc(a1-3)]Gal(b1-3)GlcNAc(b1-2)Man(a1-3)[Fuc(a1-2)[GalNAc(a1-3)]Gal(b1-3)GlcNAc(b1-2)Man(a1-6)]Man(b1-4)GlcNAc(b1-4)GlcNAc
Procedure, shortened: as §1

[15] = target: Fuc(a1-2)[GalNAc(a1-3)]Gal(b1-3)GlcNAc(b1-2)Man(a1-3)[Fuc(a1-2)[GalNAc(a1-3)]Gal(b1-3)GlcNAc(b1-2)Man(a1-6)]Man(b1-4)GlcNAc(b1-4)[Fuc(a1-6)]GlcNAc
Procedure, shortened: as §1

[16] = target: Fuc(a1-2)[GalNAc(a1-3)]Gal(b1-3)GlcNAc(b1-3)GalNAc
Procedure, shortened: as §1

[17] = target: Fuc(a1-2)[GalNAc(a1-3)]Gal(b1-3)GlcNAc(b1-6)GalNAc
Procedure, shortened: as §1

[18] = target: Fuc(a1-2)[GalNAc(a1-3)]Gal(b1-4)Glc
Procedure, shortened: as §1

[19] = target: Fuc(a1-2)[GalNAc(a1-3)]Gal(b1-4)GlcNAc
Procedure, shortened: as §1

[20] = target: Fuc(a1-2)[GalNAc(a1-3)]Gal(b1-4)GlcNAc(b1-2)Man
Procedure, shortened: as §1

[21] = target: Fuc(a1-2)[GalNAc(a1-3)]Gal(b1-4)GlcNAc(b1-2)Man(a1-3)[Fuc(a1-2)[GalNAc(a1-3)]Gal(b1-4)GlcNAc(b1-2)Man(a1-6)]Man(b1-4)GlcNAc(b1-4)GlcNAc
Procedure, shortened: as §1

[22] = target: Fuc(a1-2)[GalNAc(a1-3)]Gal(b1-4)GlcNAc(b1-2)Man(a1-3)[Fuc(a1-2)[GalNAc(a1-3)]Gal(b1-4)GlcNAc(b1-2)Man(a1-6)]Man(b1-4)GlcNAc(b1-4)[Fuc(a1-6)]GlcNAc
Procedure, shortened: as §1

[23] = target: Fuc(a1-2)[GalNAc(a1-3)]Gal(b1-4)GlcNAc(b1-3)Gal(b1-4)GlcNAc
Procedure, shortened: as §1

[24] = target: Fuc(a1-2)[GalNAc(a1-3)]Gal(b1-4)GlcNAc(b1-3)Gal(b1-4)GlcNAc(b1-3)Gal(b1-4)GlcNAc
Procedure, shortened: as §1

[25] = target: Fuc(a1-2)[GalNAc(a1-3)]Gal(b1-4)GlcNAc(b1-3)GalNAc
Procedure, shortened: as §1

[26] = target: Fuc(a1-2)[GalNAc(a1-3)]Gal(b1-4)GlcNAc(b1-3)[Fuc(a1-2)[GalNAc(a1-3)]Gal(b1-4)GlcNAc(b1-6)]GalNAc
Procedure, shortened: as §1

[27] = target: Fuc(a1-2)[GalNAc(a1-3)]Gal(b1-4)GlcNAc(b1-6)GalNAc
Procedure, shortened: as §1

[28] = target: Fuc(a1-2)[GalNAc(a1-3)]Gal(b1-4)[Fuc(a1-3)]GlcNAc
Procedure, shortened: as §1

[29] = target: Fuc(a1-2)[GalNAc(a1-3)]Gal(b1-4)[Fuc(a1-3)]GlcNAc(b1-3)GalNAc
Procedure, shortened: as §1

[30] = target: Fuc(a1-2)[GalNAc(a1-4)]Gal(b1-4)GlcNAc
Procedure, shortened: as §1

[31] = target: Fuc(a1-2)[GalNAc(b1-3)]Gal
Procedure, shortened: as §1

[32] = target: Fuc(a1-3)GlcNAc
Procedure, shortened: as §1

[33] = target: Fuc(a1-3)[Gal(b1-4)]Glc6S
Procedure, shortened: as §1

[34] = target: Fuc(a1-3)[Gal(b1-4)]GlcNAc
Procedure, shortened: as §1

[35] = target: Fuc(a1-3)[Gal(b1-4)]GlcNAc(b1-2)Man
Procedure, shortened: as §1

[36] = target: Fuc(a1-3)[Gal(b1-4)]GlcNAc(b1-2)Man(a1-3)[Fuc(a1-3)[Gal(b1-4)]GlcNAc(b1-2)Man(a1-6)]Man(b1-4)GlcNAc(b1-4)GlcNAc
Procedure, shortened: as §1

[37] = target: Fuc(a1-3)[Gal(b1-4)]GlcNAc(b1-2)Man(a1-3)[Fuc(a1-3)[Gal(b1-4)]GlcNAc(b1-2)Man(a1-6)]Man(b1-4)GlcNAc(b1-4)[Fuc(a1-6)]GlcNAc
Procedure, shortened: as §1

B1: SUN4P (Saccharomyces cerevisiae), P53616 (protein)
chain: MGSSHHHHHHSSGLVPRGSHNGSIYGDLADFSGPYEKFEDGTIPCGQFPSGQGVIPISWLDEGGWSGVENTDTSTGGSCKEGSYCSYACQPGMSKTQWPSDQPSDGRSIGGLLCKDGYLYRSNTDTDYLCEWGVDAAYVVSELSNDVAICLTDYPGTENMVIPTYVQAGDSLPLTVVDQDTYYTWQGLKTSAQYYVNNAGISVEDACVWGSSSSGVGNWAPLNFGAGSSDGVAYLSLIPNPNNGNALNFNVKIVAADDSSTVNGECIYENGSFSGGSDGCTVSVTAGKAKFVLYN
Q: Which results are given for B1?
A: glycan array binding signal (z-score) [1]: -0.113; glycan array binding signal (z-score) [2]: -0.359; glycan array binding signal (z-score) [3]: -0.465; glycan array binding signal (z-score) [4]: 0.346; glycan array binding signal (z-score) [5]: -0.055; glycan array binding signal (z-score) [6]: -0.341; glycan array binding signal (z-score) [7]: -0.336; glycan array binding signal (z-score) [8]: 0.363; glycan array binding signal (z-score) [9]: 0.224; glycan array binding signal (z-score) [10]: -0.644; glycan array binding signal (z-score) [11]: -0.393; glycan array binding signal (z-score) [12]: -0.881; glycan array binding signal (z-score) [13]: -0.545; glycan array binding signal (z-score) [14]: -0.195; glycan array binding signal (z-score) [15]: -0.131; glycan array binding signal (z-score) [16]: 1.16; glycan array binding signal (z-score) [17]: 0.562; glycan array binding signal (z-score) [18]: -0.571; glycan array binding signal (z-score) [19]: -0.142; glycan array binding signal (z-score) [20]: -0.443; glycan array binding signal (z-score) [21]: 0.742; glycan array binding signal (z-score) [22]: -0.12; glycan array binding signal (z-score) [23]: -1.07; glycan array binding signal (z-score) [24]: -0.33; glycan array binding signal (z-score) [25]: -0.646; glycan array binding signal (z-score) [26]: 0.905; glycan array binding signal (z-score) [27]: -0.976; glycan array binding signal (z-score) [28]: 0.45; glycan array binding signal (z-score) [29]: 0.696; glycan array binding signal (z-score) [30]: 0.486; glycan array binding signal (z-score) [31]: 1.77; glycan array binding signal (z-score) [32]: -0.655; glycan array binding signal (z-score) [33]: -0.498; glycan array binding signal (z-score) [34]: -0.538; glycan array binding signal (z-score) [35]: 0.998; glycan array binding signal (z-score) [36]: -0.651; glycan array binding signal (z-score) [37]: -1.23
